Results published in PubChem BioAssay AID504375 (National Center for Advancing Translational Sciences (NCATS), 2011).
About 25 (2%) of roughly 1,600 compounds were called active. About 7% were inconclusive and are not listed. The call rests on the fitted dose curve; in most records, active means well fitted inhibition curve with a large enough effect; inconclusive means small, poorly fitted or top-dose-only effect, or effect the other way; inactive means no such curve, though single readings can be large or run the other way. This is one part of the list.

The chains behind the UniProt entries cited, without tags or fusion partners.
UniProt Q01196, whole entry, looked up: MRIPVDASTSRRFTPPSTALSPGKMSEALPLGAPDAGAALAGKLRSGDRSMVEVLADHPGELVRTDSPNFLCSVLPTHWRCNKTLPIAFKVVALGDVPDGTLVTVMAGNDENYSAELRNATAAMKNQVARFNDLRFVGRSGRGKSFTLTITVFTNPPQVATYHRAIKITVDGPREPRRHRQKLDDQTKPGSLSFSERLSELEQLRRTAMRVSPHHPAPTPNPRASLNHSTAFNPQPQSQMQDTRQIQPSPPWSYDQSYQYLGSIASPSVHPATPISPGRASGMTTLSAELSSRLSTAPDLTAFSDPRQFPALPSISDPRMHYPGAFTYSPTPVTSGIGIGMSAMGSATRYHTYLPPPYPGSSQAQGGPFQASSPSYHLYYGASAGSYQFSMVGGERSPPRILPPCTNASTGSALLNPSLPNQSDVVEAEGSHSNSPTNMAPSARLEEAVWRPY
UniProt Q13951, whole entry, looked up: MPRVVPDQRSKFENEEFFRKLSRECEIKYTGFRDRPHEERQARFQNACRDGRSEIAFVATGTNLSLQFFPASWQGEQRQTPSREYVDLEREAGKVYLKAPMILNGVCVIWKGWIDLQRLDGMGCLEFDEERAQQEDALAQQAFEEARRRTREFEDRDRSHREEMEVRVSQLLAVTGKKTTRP

The compounds below were run against Runt-related transcription factor 1 (Homo sapiens) + Core-binding factor subunit beta (Homo sapiens) (UniProt Q01196+Q13951) (assay: qHTS Assay for Compounds Blocking the Interaction Between CBF-beta and RUNX1 for the Treatment of Acute Myeloid Leukemia: Hit Validation with Orthogonal Assay). Settings: CBFbeta-RUNX1 binding orthogonal assay, biochemical; series mostly up to 41 µM; activity change, negative = inhibition: at the top concentration.
In short: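 This is an orthogonal TR-FRET assay. His6-CBF-beta and biotin-RUNX1 (30 nM each) were preincubated with compound for 30 min, then Tb-anti-His antibody (0.44 ng) and streptavidin-XL665 (5 nM) were added. The signal was read after 90 min.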
On the % scale 0 is the no-effect control and ±100 the full control effect.

Activity change, negative = inhibition, inactive:
COc1ccc(Oc2nc(-c3ccccn3)ncc2OC)cc1 -6.94% [at 82.4 µM], Nc1nc(Nc2cccc(Cl)c2)n[nH]1 9.81%, Cc1ccc(OCC(=O)N(Cc2ccc(N(C)C)cc2)C2CCS(=O)(=O)C2)cc1C (stereo unspecified) 10.2%, COCCNc1c2c(nc3c(-c4ccccc4)c(C)nn13)CCC2 1.65%, O=C(NC1CCSC1)c1cccc(Cl)c1 (stereo unspecified) 5.27%, CCC(C)(C)C1CCc2[nH]nc(C(=O)N/N=C(\C)c3ccco3)c2C1 (stereo unspecified) 3.02%, N/C(CN1CCSCC1)=N\OCc1c(F)cccc1Cl 10.8%, COc1ccc2nc3cc(Cl)ccc3c(C#N)c2c1 13.3%, CC(C)CC(=O)NC(=S)Nc1ccccc1N1CCCC1 22.8%, N#Cc1ccc(-c2cccnc2)nc1SCC(=O)c1ccccc1 29.9%, Clc1nc(Oc2ccccc2)nc(-c2cn(-c3ccccc3)c3ccccc23)n1 -9%, COc1ccc(CN2CCOC2=O)cc1OC -2.74%, Cc1cc(NC(=O)CN2CCOCC2)n(-c2ccccc2)n1 4.36%, Cc1ccc(SC2=C(Sc3ccc(C)cc3)C(=O)c3ccccc3C2=O)cc1 26.3%, O=C(CN1CCCc2ccccc21)N1CCc2ccccc21 18.9%, CC(C)(C)c1ccc(/C=N/N2CCN(c3ccccn3)CC2)cc1 1.59%, c1ccc(-c2ccc(-c3nccc4ccccc34)[nH]2)cc1 18.1%, O=C(O)CCC1(c2ccccc2)NC(=O)NC1=O (stereo unspecified) -2.89%, COC(=O)CC1C(=O)NCCN1C(=S)Nc1ccc(F)cc1 (stereo unspecified) -9.22%, Cc1cccc(-c2n[nH]c(=S)n2/N=C/c2ccco2)c1 -0.0367%, COc1ccccc1NC(=S)NCC1CCC(CNC(=S)Nc2ccccc2OC)CC1 (stereo unspecified) 1.97%, CC(C)CCNc1nc(N)c([N+](=O)[O-])c(NCCO)n1 18%, COc1ccccc1N1C(=O)CC(Sc2ccccc2N)C1=O (stereo unspecified) 7.98%, CCCC1C2C(=O)N(c3cccc(C)c3)C(=O)C2ON1c1ccccc1 (stereo unspecified) -2.89%, Cc1cnc(NS(=O)(=O)c2ccccc2)c(Br)c1 2.42%, CC(C)(C)C(=O)Nc1nc(NC(=O)C(C)(C)C)nc(-c2ccccc2Cl)n1 -5.75%, Cc1oc(S(=O)(=O)N2CCCCC2)cc1NC(=O)Nc1ccc(F)cc1 -11.6%, Cc1[nH]c(N=Nc2ccccc2)nc1N=Nc1ccccc1 19.5%, CCc1sc(N)nc1-c1ccccc1 9.08% [at 22.1 µM], CCCc1ccc(OCc2ccccc2)c2c(=O)cc(C(=O)OCC)oc12 2.53%, CN(C)NC(=S)NC1CCS(=O)(=O)C1 (stereo unspecified) -3.06%, O=c1ccn(CCCBr)c(=O)[nH]1 8.4%, CCCN(c1ccc(C)cc1)c1nc(=O)c2cccnc2s1 3.24%, Cc1cc(NC(=O)CSc2nc3ccccc3[nH]2)n(-c2ccccc2)n1 1.11%, Cc1cc(C)nc(S/C=C/C(=O)c2ccccc2F)n1 12%, CCOC(=O)COc1ccc2c(=O)cc(-c3ccccc3)oc2c1 5.15%, O=C(NCCc1ccc(Cl)cc1)Nc1ccc(Cl)cc1 3.98%, O=C(CCl)NC1(C(F)(F)F)C(=O)Nc2c1c(=O)[nH]c(=O)n2-c1ccccc1 (stereo unspecified) -7.72%, c1ccc(CSc2nc3ncncc3[nH]2)cc1 -4.69%, C=CCn1c(-c2sc3nc(C)cc(C)c3c2N)n[nH]c1=S 34.3%, O=C(/C=C/c1cn(CC(O)CN2CCOCC2)c2ccccc12)c1cccs1 (stereo unspecified) 4.2%, COc1cc(/C=N\NC(=O)CNC(=O)C(c2ccccc2)c2ccccc2)ccc1O 11.9%, Cc1c([N+](=O)[O-])c(C/C=N/O)nn1C 17.1%, CCCN(CCC)c1ccc(/C=C/c2ccc3cc(OCC)ccc3n2)cc1 -0.232%, N#Cc1c(Cl)cccc1N1CCC(C(N)=O)CC1 -3.61%, Cn1c(=O)c([N+](=O)[O-])c(NCC2CCCO2)c2ccccc21 (stereo unspecified) 28.8%, CC(C)CC(=O)NC(=S)Nc1ccc(CN2CCOCC2)cc1 5.93%, CC1Cc2cc(/C=C3/SC(=S)N(C)C3=O)ccc2O1 (stereo unspecified) 12%, Cc1sc(NC(=O)CN2CCOCC2)c(C#N)c1C -16.3%, Cc1ccc(N2CC(c3nc4ccccc4n3C)CC2=O)cc1 (stereo unspecified) 16.9%, COc1ccc(Oc2ncccc2[N+](=O)[O-])cc1 49.1%, COC(=O)c1ccc(OC)c(OC)c1Cl 5.96%, Cc1ccc(N/N=C(\C#N)C(=N)N2CCCCC2)cc1 59.2%, Cc1cc(O)c(C(C)C)cc1N=Cc1ccccc1O 5.04%, COC(=O)c1sccc1NC(=S)Nc1ccc(C)cc1 -22.9%, Cc1ccccc1C1NC(c2ccccc2C)C([N+](=O)[O-])C(C)(C)C1[N+](=O)[O-] (stereo unspecified) 15%, CC(C)OP(=O)(c1ccc(N(C)C)cc1)C(O)c1cccnc1 (stereo unspecified) 1.41%, CSCCC(NS(=O)(=O)/C=C/c1ccccc1)C(=O)NCCc1ccc(S(N)(=O)=O)cc1 (stereo unspecified) 4.05%, NC1=NC(=Nc2ccc(S(N)(=O)=O)cc2)c2ccccc21 6.34%, CCCOc1ccc(C(=O)c2ccccc2C(=O)O)cc1OCCC 1.6%, CCN1CCN(S(=O)(=O)c2cc(C(=O)O)ccc2Cl)CC1 -5.48%, O=C(O)CCC(=O)N1CCN(c2ncccn2)CC1 -8.75%, COc1ccc(/C=N/NC(=S)Nc2cc(C(F)(F)F)ccc2Cl)cc1 3.19%, Cc1cc(C)[n+]2[nH]c(N)c(N=Nc3ccccc3)c2n1 9.93%, CCCNc1cc(=S)nc(N)[nH]1 -4.33%, CC(/C=N/NC(=O)c1cc(-c2cccn2C)n[nH]1)=C\c1ccccc1 -6.57%, CC(=O)Nc1ccc(NS(=O)(=O)c2ccc(C)cc2)cc1[N+](=O)[O-] 31.5%, CC1c2ccsc2CCN1S(=O)(=O)c1cccs1 (stereo unspecified) -8.33%, OCc1ncc(-c2ccccc2)s1 -10.5%, CC(=O)Cc1nnn(-c2cc(C)on2)n1 0.306%, O=C(CSc1ccc(-c2ccccn2)nn1)NCc1ccccc1 -3.74% [at 82.4 µM], Cc1c(Cl)ccc2c(C(=O)O)cc(-c3ccccc3)nc12 -3.82%, COc1ccc(/C=N/NC(=O)Cn2ccnc2C)cc1OC -3.54%, Cc1nn(C)c(Sc2ccccn2)c1[N+](=O)[O-] 17.8%, CCOc1ccc(Nc2nc(N)nc(CCl)n2)cc1 -7.88%, FC(F)(F)c1cccc(-n2c(Cn3nnc4ccccc43)n[nH]c2=S)c1 -16.8%, Cc1ccc(S(=O)(=O)NC(=O)Nc2ccc(OC(F)F)cc2)cc1 9.37%, COc1ccc(/C=N/NC(=O)c2ccc(Br)cc2)cc1CN1CCOCC1 15.4%, O=S(=O)(c1ccc(Cl)cc1)N1CCCN(c2ccc(C(F)(F)F)cn2)CC1 -10.5%, Cc1cc(C)n2cnnc2n1 10.9%, C/C(=N\Nc1ccc(C#N)cc1[N+](=O)[O-])c1ccc(O)cc1 16.9%, O=[N+]([O-])c1c(C(Cl)Cl)nn(-c2ccccc2)c1N1CCCC1 0.555% [at 22.1 µM], Clc1ccccc1-c1nnc2n1CCCCC2 -6.94%, COC(=O)c1ccc(/C=N/NC(=O)C(=O)NCC2CCCO2)cc1 (stereo unspecified) 1.71%, COC(=O)[C@H](CC(C)C)NC(=O)N1CCCCC1C (stereo partly specified) -1.26%, Oc1ccc(NC(=S)Nc2ccccc2)cc1 10.7%, COc1ccc(-c2c(NC(=O)c3ccco3)n(-c3ccccc3)nc(C)c2=O)cc1 16.9%, NNC(=O)c1ccc(COc2ccc([N+](=O)[O-])cc2)o1 21.3%, CC(=O)c1ccc(-n2ccnc2)cc1 -0.967%, CC(C)c1ccc(Nc2c([N+](=O)[O-])c(=O)n(C)c3ccccc23)cc1 37.9%, CCOC(=O)/C(=N/Nc1ccc(OC)cc1)N1CCCc2ccccc21 -4.32%, CCCCCc1ccc(S(=O)(=O)Nc2cc(C)ccn2)cc1 -8.73%, CC(=O)c1ccc(N2CCc3ccccc3C2)c([N+](=O)[O-])c1 32.5%, Cc1cc(=O)oc(C)c1C(=O)Nc1ccccc1F -5.73%, Cc1cc(C)cc(NC(=O)NCC(O)COc2ccc([N+](=O)[O-])cc2)c1 (stereo unspecified) 7.89%, Cc1onc(-c2c(F)cccc2Cl)c1C(=O)N=C(N)N1CC(C)OC(C)C1 (stereo unspecified) 4.75%, CN(C)/C=C(/C(=O)c1ccc(Cl)c(Cl)c1)c1nnnn1-c1ccccc1 -20.4%, Nc1ccccc1C(=O)NNC1=C(C(=O)C(F)(F)F)CCC1 -7.41%, CCOC(=O)Cc1csc(NC(=O)Cc2ccc(Br)cc2)n1 -7.4%, N/C(Cc1nc2ccccc2s1)=N\O 12.3%, Cc1c(-c2ccccc2)[n+](=O)c(-c2ccc(Br)cc2)c(C)n1[O-] 26.5%, COc1cc(NC(=S)N(C)C)c(OC)cc1Cl 6.15%, CC1=C(C(=O)c2ccccc2)C(c2ccc(O)cc2)NC(=S)N1 (stereo unspecified) 0.624%, Clc1cc(Cl)cc(Nc2ncnc(-n3cccc3)n2)c1 -2.8%, O=C(CCCCCCCCCCC(=O)NCc1cccnc1)NCc1cccnc1 1.7%, C1=Cc2ccccc2Nc2ccccc21 15.4%, CC(=O)NCC1(O)CCCC(C)C1 (stereo unspecified) 6.06%, CSc1ccc2c(c1)C(N1CCN(C)CC1)Cc1ccccc1S2 (stereo unspecified) -1.54%, O=C(Nc1ccc(F)cc1)C(=O)c1c(O)[nH]c2ccc([N+](=O)[O-])cc12 11.1%, CC1=[N+](C)N(c2ccccc2)C(=O)C1N=C/C=C/c1ccccc1 (stereo unspecified) -2.94%, O=C(c1ccccc1Cl)N1CCSCC1 -5.33%, Cc1csc2c(N3CCC(C(=O)O)CC3)ncnc12 0.416%, CCOC(=O)c1c[nH]n2c(=O)cc(C)nc12 5.6%, C=COC(=O)c1sc2nc(C)cc(C)c2c1N 29.3%, Cc1onc(-c2ccccc2)c1NC(=O)N(Cc1ccccc1)C(C)C -14.8%, O=C(CN1CCCC1)OCCCC1CCCCC1 -5.66%, COC(=O)c1sccc1NC(=O)CC1C(=O)NCCN1C(=O)c1ccc(F)cc1 (stereo unspecified) 9.57%, COc1ccc(C(O)Cn2cc([N+](=O)[O-])nc2C)cc1 (stereo unspecified) 13.5%, Cc1ccc(C2N=C(N)Nc3nc(=O)c4ccccc4n32)cc1 (stereo unspecified) -20.6%, C=CCn1c(=O)c2ccccc2n2nnc(C(=O)OCC)c12 8.09%, O=C(O)c1ccc(N/N=C/C2=C(N3CCOCC3)C(=C\c3ccccc3)/CC2)cc1 -23.6%
